Data taken from the supplement of paper PMC7661543.
± gives the standard deviation of the averaged measurements. The effect of the compound repeats well; differences between the knockouts mostly do not.

System: BT-20
Assay: relative cell number vs DMSO control (72 h) (% of DMSO); higher = less growth inhibition (more cells)
Procedure: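 QMAP-Seq: a pool of 5 breast cancer cell lines (ZR-75-1, SKBR3, HCC-38, MDA-MB-231, BT-20), each carrying 12 doxycycline-inducible Cas9 sgRNA perturbations (11 knockouts plus non-targeting sgNT), was treated with compounds for 72 h at four 10-fold doses (10 nM-10 uM or 1 nM-1 uM range). Barcodes were amplified and sequenced, and cell number was interpolated from 293T spike-in standard curves. The result is expressed as % of the median of DMSO wells. Two biological replicates.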

Cn1nnc2c(C(N)=O)ncn2c1=O [Temozolomide]
Conditions	relative cell number
sgRNA knockout: sgATF3, 10 nM	111 ± 11
sgRNA knockout: sgATF3, 100 nM	91.8 ± 3.4
sgRNA knockout: sgATF3, 1000 nM	113 ± 12
sgRNA knockout: sgATF3, 10000 nM	128 ± 34
sgRNA knockout: sgATF4, 10 nM	120 ± 10
sgRNA knockout: sgATF4, 100 nM	101 ± 9.2
sgRNA knockout: sgATF4, 1000 nM	115 ± 5.7
sgRNA knockout: sgATF4, 10000 nM	135 ± 27
sgRNA knockout: sgATF6, 10 nM	101 ± 12
sgRNA knockout: sgATF6, 100 nM	98.3 ± 15
sgRNA knockout: sgATF6, 1000 nM	107 ± 12
sgRNA knockout: sgATF6, 10000 nM	137 ± 40
sgRNA knockout: sgATG7, 10 nM	111 ± 16
sgRNA knockout: sgATG7, 100 nM	101 ± 2.4
sgRNA knockout: sgATG7, 1000 nM	108.6 ± 0.89
sgRNA knockout: sgATG7, 10000 nM	120 ± 27
sgRNA knockout: sgERN1, 10 nM	109.4 ± 0.66
sgRNA knockout: sgERN1, 100 nM	94.7 ± 1.3
sgRNA knockout: sgERN1, 1000 nM	106 ± 3.8
sgRNA knockout: sgERN1, 10000 nM	125 ± 22
sgRNA knockout: sgHSF1, 10 nM	103 ± 12
sgRNA knockout: sgHSF1, 100 nM	86.34 ± 0.29
sgRNA knockout: sgHSF1, 1000 nM	99.1 ± 11
sgRNA knockout: sgHSF1, 10000 nM	109 ± 31
sgRNA knockout: sgHSF2, 10 nM	103 ± 8.9
sgRNA knockout: sgHSF2, 100 nM	88.96 ± 0.34
sgRNA knockout: sgHSF2, 1000 nM	116 ± 22
sgRNA knockout: sgHSF2, 10000 nM	122 ± 24
sgRNA knockout: sgKEAP1, 10 nM	95.6 ± 6.1
sgRNA knockout: sgKEAP1, 100 nM	100 ± 12
sgRNA knockout: sgKEAP1, 1000 nM	111 ± 5.3
sgRNA knockout: sgKEAP1, 10000 nM	113 ± 4.3
sgRNA knockout: sgNFE2L2, 10 nM	125 ± 1.2
sgRNA knockout: sgNFE2L2, 100 nM	108 ± 9.3
sgRNA knockout: sgNFE2L2, 1000 nM	144 ± 19
sgRNA knockout: sgNFE2L2, 10000 nM	158 ± 48
sgRNA knockout: sgSLC35F2, 10 nM	103 ± 9.4
sgRNA knockout: sgSLC35F2, 100 nM	98.7 ± 7.7
sgRNA knockout: sgSLC35F2, 1000 nM	115 ± 22
sgRNA knockout: sgSLC35F2, 10000 nM	118 ± 55
sgRNA knockout: sgXBP1, 10 nM	103 ± 1.5
sgRNA knockout: sgXBP1, 100 nM	95.4 ± 2.2
sgRNA knockout: sgXBP1, 1000 nM	111 ± 6.2
sgRNA knockout: sgXBP1, 10000 nM	123 ± 31

Cc1cc2c(C(C)C)c(O)c(O)c(C=O)c2c(O)c1-c1c(C)cc2c(C(C)C)c(O)c(O)c(C=O)c2c1O [Gossypol]
Conditions	relative cell number
sgRNA knockout: sgATF3, 10 nM	97.4 ± 7.1
sgRNA knockout: sgATF3, 100 nM	103 ± 5.9
sgRNA knockout: sgATF3, 1000 nM	105 ± 2.2
sgRNA knockout: sgATF3, 10000 nM	44.6 ± 2.7
sgRNA knockout: sgATF4, 10 nM	105 ± 22
sgRNA knockout: sgATF4, 100 nM	102 ± 4.3
sgRNA knockout: sgATF4, 1000 nM	114 ± 16
sgRNA knockout: sgATF4, 10000 nM	48 ± 4.6
sgRNA knockout: sgATF6, 10 nM	109.2 ± 0.62
sgRNA knockout: sgATF6, 100 nM	109 ± 28
sgRNA knockout: sgATF6, 1000 nM	113 ± 5.8
sgRNA knockout: sgATF6, 10000 nM	49.7 ± 8.3
sgRNA knockout: sgATG7, 10 nM	98 ± 26
sgRNA knockout: sgATG7, 100 nM	101 ± 5.1
sgRNA knockout: sgATG7, 1000 nM	106 ± 5.2
sgRNA knockout: sgATG7, 10000 nM	52.4 ± 7.8
sgRNA knockout: sgERN1, 10 nM	97.1 ± 1.5
sgRNA knockout: sgERN1, 100 nM	106 ± 2.8
sgRNA knockout: sgERN1, 1000 nM	97.3 ± 5.2
sgRNA knockout: sgERN1, 10000 nM	46.1 ± 3.6
sgRNA knockout: sgHSF1, 10 nM	102 ± 21
sgRNA knockout: sgHSF1, 100 nM	100 ± 6.3
sgRNA knockout: sgHSF1, 1000 nM	112 ± 5
sgRNA knockout: sgHSF1, 10000 nM	45.5 ± 2.8
sgRNA knockout: sgHSF2, 10 nM	104 ± 3.7
sgRNA knockout: sgHSF2, 100 nM	102 ± 18
sgRNA knockout: sgHSF2, 1000 nM	104 ± 6.4
sgRNA knockout: sgHSF2, 10000 nM	46.4 ± 2.6
sgRNA knockout: sgKEAP1, 10 nM	96.4 ± 1.1
sgRNA knockout: sgKEAP1, 100 nM	84 ± 9.2
sgRNA knockout: sgKEAP1, 1000 nM	105 ± 4.6
sgRNA knockout: sgKEAP1, 10000 nM	46.4 ± 3.4
sgRNA knockout: sgNFE2L2, 10 nM	113.5 ± 0.64
sgRNA knockout: sgNFE2L2, 100 nM	96.6 ± 7.8
sgRNA knockout: sgNFE2L2, 1000 nM	114 ± 12
sgRNA knockout: sgNFE2L2, 10000 nM	45.23 ± 0.3
sgRNA knockout: sgSLC35F2, 10 nM	110 ± 21
sgRNA knockout: sgSLC35F2, 100 nM	122 ± 9.5
sgRNA knockout: sgSLC35F2, 1000 nM	115 ± 4.8
sgRNA knockout: sgSLC35F2, 10000 nM	46.1 ± 3
sgRNA knockout: sgXBP1, 10 nM	100 ± 14
sgRNA knockout: sgXBP1, 100 nM	86.2 ± 23
sgRNA knockout: sgXBP1, 1000 nM	107 ± 16
sgRNA knockout: sgXBP1, 10000 nM	49.7 ± 1.5

CN1CCN(CCCN2c3ccccc3Sc3ccc(C(F)(F)F)cc32)CC1 [Trifluoperazine]
Conditions	relative cell number
sgRNA knockout: sgATF3, 10 nM	89.8 ± 13
sgRNA knockout: sgATF3, 100 nM	87.3 ± 10
sgRNA knockout: sgATF3, 1000 nM	85.4 ± 3.6
sgRNA knockout: sgATF3, 10000 nM	75.7 ± 18
sgRNA knockout: sgATF4, 10 nM	93.3 ± 43
sgRNA knockout: sgATF4, 100 nM	101 ± 9.6
sgRNA knockout: sgATF4, 1000 nM	72.6 ± 5.1
sgRNA knockout: sgATF4, 10000 nM	77.8 ± 1.6
sgRNA knockout: sgATF6, 10 nM	76.1 ± 12
sgRNA knockout: sgATF6, 100 nM	106 ± 7.2
sgRNA knockout: sgATF6, 1000 nM	108 ± 23
sgRNA knockout: sgATF6, 10000 nM	85.8 ± 2.9
sgRNA knockout: sgATG7, 10 nM	93.7 ± 7.9
sgRNA knockout: sgATG7, 100 nM	106 ± 12
sgRNA knockout: sgATG7, 1000 nM	107 ± 2
sgRNA knockout: sgATG7, 10000 nM	75.8 ± 2.5
sgRNA knockout: sgERN1, 10 nM	86.7 ± 18
sgRNA knockout: sgERN1, 100 nM	91.6 ± 9.7
sgRNA knockout: sgERN1, 1000 nM	94.6 ± 11
sgRNA knockout: sgERN1, 10000 nM	68.3 ± 4.1
sgRNA knockout: sgHSF1, 10 nM	93.9 ± 27
sgRNA knockout: sgHSF1, 100 nM	93.7 ± 8.9
sgRNA knockout: sgHSF1, 1000 nM	89.5 ± 4.9
sgRNA knockout: sgHSF1, 10000 nM	76.2 ± 4.8
sgRNA knockout: sgHSF2, 10 nM	88.9 ± 6.3
sgRNA knockout: sgHSF2, 100 nM	78.7 ± 8.5
sgRNA knockout: sgHSF2, 1000 nM	80.6 ± 5.4
sgRNA knockout: sgHSF2, 10000 nM	69.5 ± 6.3
sgRNA knockout: sgKEAP1, 10 nM	88.6 ± 8.4
sgRNA knockout: sgKEAP1, 100 nM	93.6 ± 12
sgRNA knockout: sgKEAP1, 1000 nM	97.2 ± 7.1
sgRNA knockout: sgKEAP1, 10000 nM	81.2 ± 4.4
sgRNA knockout: sgNFE2L2, 10 nM	94.7 ± 38
sgRNA knockout: sgNFE2L2, 100 nM	100 ± 30
sgRNA knockout: sgNFE2L2, 1000 nM	84.6 ± 0.73
sgRNA knockout: sgNFE2L2, 10000 nM	67.5 ± 13
sgRNA knockout: sgSLC35F2, 10 nM	110 ± 4.1
sgRNA knockout: sgSLC35F2, 100 nM	97 ± 7.2
sgRNA knockout: sgSLC35F2, 1000 nM	91.5 ± 3.3
sgRNA knockout: sgSLC35F2, 10000 nM	88.2 ± 7.6
sgRNA knockout: sgXBP1, 10 nM	99.1 ± 18
sgRNA knockout: sgXBP1, 100 nM	107 ± 23
sgRNA knockout: sgXBP1, 1000 nM	112 ± 7.9
sgRNA knockout: sgXBP1, 10000 nM	83.1 ± 6.3
